# According to PMC9560627, “Targeting Echinococcus multilocularis PIM kinase for improving anti-parasitic chemotherapy” (PLoS Neglected Tropical Diseases, 2022):
# These are yes or no findings as the source states them, for the method shown. Binding calls can cover weak binding; strength is not graded here.
# Biological target: E. multilocularis PIM kinase EmPim (E. multilocularis)
# Assay: two-hybrid; Gal4-based Matchmaker system, S. cerevisiae Gold strain; EmPim in pGBKT7, EmCDC25 in pGADT7; growth on Leu-/Trp-/His- triple dropout (medium stringency) and Leu-/Trp-/Ade-/His- quadruple dropout (high stringency) plates, 30°C, 48-72 h; growth on quadruple dropout plates quantified as gray value
substance,measurement,value
E. multilocularis CDC25 phosphatase EmCDC25 (from UniProt A0A068XY79) (enzyme),binding,binds
